Results are given in words; binding and its absence hold for the method and conditions named. In cells and extracts the contact can be indirect. Some binding calls cover weakened binding; strength is not graded here.
T1: CD6 lymphocyte surface receptor (human (endogenous in PBMC)) (UniProt P30203)
T1 sequence: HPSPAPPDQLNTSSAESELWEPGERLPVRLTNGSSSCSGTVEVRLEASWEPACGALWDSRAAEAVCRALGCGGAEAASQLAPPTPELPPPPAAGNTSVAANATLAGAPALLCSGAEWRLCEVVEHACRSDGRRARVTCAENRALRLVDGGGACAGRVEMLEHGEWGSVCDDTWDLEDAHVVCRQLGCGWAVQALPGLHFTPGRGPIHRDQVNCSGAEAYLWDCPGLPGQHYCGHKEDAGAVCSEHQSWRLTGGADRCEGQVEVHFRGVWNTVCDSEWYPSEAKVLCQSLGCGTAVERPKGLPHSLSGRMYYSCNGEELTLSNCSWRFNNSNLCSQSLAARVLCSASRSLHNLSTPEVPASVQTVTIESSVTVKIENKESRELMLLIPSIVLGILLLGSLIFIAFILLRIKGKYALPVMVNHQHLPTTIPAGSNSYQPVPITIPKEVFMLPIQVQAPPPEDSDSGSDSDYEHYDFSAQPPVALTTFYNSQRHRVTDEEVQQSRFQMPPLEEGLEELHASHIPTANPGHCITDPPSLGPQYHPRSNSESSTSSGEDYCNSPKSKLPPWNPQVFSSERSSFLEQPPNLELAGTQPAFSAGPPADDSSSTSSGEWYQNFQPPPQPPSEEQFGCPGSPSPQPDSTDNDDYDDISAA

Chains of the proteins cited; added tags and fusions are not shown.
UniProt P29350: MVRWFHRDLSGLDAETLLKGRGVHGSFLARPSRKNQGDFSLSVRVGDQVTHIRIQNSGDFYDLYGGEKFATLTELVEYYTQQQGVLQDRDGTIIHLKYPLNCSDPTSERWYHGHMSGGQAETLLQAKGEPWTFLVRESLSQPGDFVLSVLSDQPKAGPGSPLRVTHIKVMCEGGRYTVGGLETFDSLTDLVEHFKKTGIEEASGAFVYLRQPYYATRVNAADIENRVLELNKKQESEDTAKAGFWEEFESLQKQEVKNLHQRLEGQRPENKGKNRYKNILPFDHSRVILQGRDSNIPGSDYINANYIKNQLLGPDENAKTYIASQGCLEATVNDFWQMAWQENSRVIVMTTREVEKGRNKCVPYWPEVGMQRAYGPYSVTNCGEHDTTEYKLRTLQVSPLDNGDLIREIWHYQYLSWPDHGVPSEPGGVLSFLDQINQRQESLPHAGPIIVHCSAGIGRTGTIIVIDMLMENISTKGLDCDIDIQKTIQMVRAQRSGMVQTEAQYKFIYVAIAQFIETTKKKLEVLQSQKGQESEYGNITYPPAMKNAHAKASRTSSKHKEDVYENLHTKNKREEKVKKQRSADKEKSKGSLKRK
UniProt P43403: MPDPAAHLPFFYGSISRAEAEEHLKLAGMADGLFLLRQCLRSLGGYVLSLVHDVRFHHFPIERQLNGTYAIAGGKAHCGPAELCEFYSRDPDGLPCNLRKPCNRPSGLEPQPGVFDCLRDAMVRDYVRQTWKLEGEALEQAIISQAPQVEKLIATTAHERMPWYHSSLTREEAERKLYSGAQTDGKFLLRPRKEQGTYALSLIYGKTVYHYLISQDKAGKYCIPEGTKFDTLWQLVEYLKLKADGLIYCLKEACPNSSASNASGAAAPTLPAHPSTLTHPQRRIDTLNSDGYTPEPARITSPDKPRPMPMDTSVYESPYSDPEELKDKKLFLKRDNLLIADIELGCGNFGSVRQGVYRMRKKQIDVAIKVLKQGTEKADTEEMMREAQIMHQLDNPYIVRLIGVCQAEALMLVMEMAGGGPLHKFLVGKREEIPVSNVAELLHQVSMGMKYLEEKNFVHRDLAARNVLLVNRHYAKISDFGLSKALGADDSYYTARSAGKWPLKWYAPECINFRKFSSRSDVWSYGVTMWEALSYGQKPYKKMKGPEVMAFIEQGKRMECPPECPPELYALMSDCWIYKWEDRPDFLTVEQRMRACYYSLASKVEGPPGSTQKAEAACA

B1: docking protein SLP76 (protein, UniProt Q13094 1-533)
chain: MALRNVPFRSEVLGWDPDSLADYFKKLNYKDCEKAVKKYHIDGARFLNLTENDIQKFPKLRVPILSKLSQEINKNEERRSIFTRKPQVPRFPEETESHEEDNGGWSSFEEDDYESPNDDQDGEDDGDYESPNEEEEAPVEDDADYEPPPSNDEEALQNSILPAKPFPNSNSMYIDRPPSGKTPQQPPVPPQRPMAALPPPPAGRNHSPLPPPQTNHEEPSRSRNHKTAKLPAPSIDRSTKPPLDRSLAPFDREPFTLGKKPPFSDKPSIPAGRSLGEHLPKIQKPPLPPTTERHERSSPLPGKKPPVPKHGWGPDRRENDEDDVHQRPLPQPALLPMSSNTFPSRSTKPSPMNPLPSSHMPGAFSESNSSFPQSASLPPYFSQGPSNRPPIRAEGRNFPLPLPNKPRPPSPAEEENSLNEEWYVSYITRPEAEAALRKINQDGTFLVRDSSKKTTTNPYVLMVLYKDKVYNIQIRYQKESQVYLLGTGLRGKEDFLSVSDIIDYFRKMPLLLIDGKNRGSRYQCTLTHAAGYP

Target: T1, CD6 lymphocyte surface receptor (human (endogenous in PBMC))
Assay: co-IP; human PBMC plated 40 min on Fc-ALCAM-coated plates (10 ug/ml, TSM buffer) with or without Itolizumab (10 ug/ml), its F(ab')2 (equimolar) or Iso Ab, or treated with anti-CD3 (OKT3, 0.5 ng/ml) for 24 h; CD6 immunoprecipitated with Itolizumab or Iso Ab; immunoblot for Zap70, SLP76, phospho and total SHP1 and SHP2

binding, binds:
SHP1 (from UniProt P29350 1-595) (enzyme), ZAP70 kinase (from UniProt P43403 1-619) (enzyme), B1

Source: publication PMC5495335
